Here are results for two sequences from publication PMC5146860, “Succinate production positively correlates with the affinity of the global transcription factor Cra for its effector FBP in Escherichia coli” (Biotechnology for Biofuels, 2016).

Numbering of substitutions follows the chain as printed. The exact form of at least one protein or probe is not confirmed. For some of these results: At least one verdict was read from the data and is not stated in words by the source. Where a protein sequence is shown, tags need not be part of it.

Data set [1] deals with T1, Cra mutant Tang1683 (pET-CI) D101R,D148R,G274R (Escherichia coli AFP111) (UniProt P0ACP1).
T1 sequence (looked up): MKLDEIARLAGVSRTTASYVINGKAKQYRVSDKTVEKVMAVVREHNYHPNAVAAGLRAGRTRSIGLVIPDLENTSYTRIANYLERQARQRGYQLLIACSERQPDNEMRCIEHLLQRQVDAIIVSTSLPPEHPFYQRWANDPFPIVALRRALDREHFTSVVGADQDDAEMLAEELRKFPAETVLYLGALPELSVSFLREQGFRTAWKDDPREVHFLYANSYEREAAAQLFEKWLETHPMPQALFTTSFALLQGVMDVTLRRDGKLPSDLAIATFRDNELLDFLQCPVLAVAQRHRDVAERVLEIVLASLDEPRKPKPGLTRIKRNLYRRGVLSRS
The experiment in a line: EMSA. Conditions: EMSA: 1.5 uM DNA annealed in TE, DNA:Cra 1:0 to 1:10, +/-1 mM FBP, 15 min at 30 °C, 10% native PAGE, ethidium bromide, recombinant protein, residues 1-334. In general terms: Mobility shift assays separate free from complexed probe on a gel.

For data set [2], the target named is T2, Cra mutant Tang1684 (pET-CII) D148R,A248F,G274R (Escherichia coli AFP111) (UniProt P0ACP1).
T2 sequence (looked up): T1 sequence (looked up) with R101D, A248F
As to the kind of experiment: EMSA. The settings on record: EMSA: 1.5 uM DNA annealed in TE, DNA:Cra 1:0 to 1:10, +/-1 mM FBP, 15 min at 30 °C, 10% native PAGE, ethidium bromide, recombinant protein, residues 1-334.

Data set [3] has as its target T3, Cra wild-type (Tang1534) (Escherichia coli AFP111) (UniProt P0ACP1).
T3 sequence (looked up): T1 sequence (looked up) with R101D, R148D, R274G
The experiment in a line: EMSA. Conditions: EMSA: 1.5 uM DNA annealed in TE, DNA:Cra 1:0 to 1:10, +/-1 mM FBP, 15 min at 30 °C, 10% native PAGE, recombinant protein, residues 1-334.

The target in data set [4] is T4, Cra mutant Tang1688 (pET-CIII) N73Y,D148R,G274R (Escherichia coli AFP111) (UniProt P0ACP1).
T4 sequence (looked up): T1 sequence (looked up) with N73Y, R101D
As to the kind of experiment: EMSA. The settings on record: EMSA: 1.5 uM DNA annealed in TE, DNA:Cra 1:0 to 1:10, +/-1 mM FBP, 15 min at 30 °C, 10% native PAGE, ethidium bromide, recombinant protein, residues 1-334.

In data set [5] the target is T1, Cra mutant Tang1683 (pET-CI) D101R,D148R,G274R (Escherichia coli AFP111). The experiment in a line: ITC. Conditions: 50 mM FBP, ITC: TAM III, 25 °C, desalted Cra (15 mM per legend), 1 mM DNA, buffer/pH not stated, recombinant protein, residues 1-334.
In data set [6] the target is T3, Cra wild-type (Tang1534) (Escherichia coli AFP111). The experiment in a line: ITC. The settings on record: 50 mM FBP, ITC: TAM III, 25 °C, desalted Cra (15 mM per legend), 1 mM DNA, buffer/pH not stated, recombinant protein, residues 1-334.
The target in data set [7] is T4, Cra mutant Tang1688 (pET-CIII) N73Y,D148R,G274R (Escherichia coli AFP111). As to the kind of experiment: ITC. The settings on record: 50 mM FBP, ITC: TAM III, 25 °C, desalted Cra (15 mM per legend), 1 mM DNA, buffer/pH not stated, recombinant protein, residues 1-334.
[8] abbreviates: 1 mM FBP, enhanced vs wild type.
[9] abbreviates: no FBP, binding rises with protein.

By Kd is commonly meant a measure of binding affinity in units of concentration. On to “TGGTGAATCGATACTTTA (double strand) [pckp (pck promoter 18-bp)]”, for which the binding result in data set [1] (1 mM FBP, further enhanced) is on record as “binds”; in data set [1] (no FBP, enhanced vs wild type) it was “binds”; in data set [2] (1 mM FBP, further enhanced), “binds”; in data set [2] (no FBP, enhanced vs wild type) it was “binds”; in data set [3] (1 mM FBP, no significant change vs no FBP, ethidium …), “binds”; in data set [3] (no FBP, ethidium bromide) it was “binds”. Besides, the binding result in data set [4] (1 mM FBP, further enhanced) was “binds”; in data set [4] (no FBP, enhanced vs wild type), “binds”. Besides, the results for the Kd in data set [5], in data set [6] and in data set [7] were 90.9 nM, 1120 nM and 171 nM, respectively.
As to “TCGTTAAGCGATTCAGCA (double strand) [aceBp (aceB promoter 18-bp; acep in Fig. 8)]”, the binding result in data set [1] (setting [8]) is “binds”; in data set [1] (setting [9]), “binds”; in data set [2] (setting [8]), “binds”; in data set [2] (setting [9]), “binds”; in data set [3] (1 mM FBP, ethidium bromide) it was “binds”; in data set [3] (no FBP, ethidium bromide), “binds”. Moreover, the binding result in data set [4] (setting [8]) and in data set [4] (setting [9]) was “binds” throughout. Further, the dissociation constant (Kd) in data set [5] came out at 272 nM; in data set [6], 1100 nM; in data set [7], 410 nM.
